In all, about 320,000 compounds went through this assay and about 620 (0.19%) were called active. The inconclusive results got no clear call from the source; some entries with a clear call stand among them for comparison. Cut-off read from the data, not from the text of the source: active = activation above about 80%; inconclusive = between about 30% and that limit; inactive = weaker than that.
Molecular target: Transient receptor potential cation channel subfamily V member 1 (Homo sapiens) (UniProt Q8NER1)
Experiment: HTS Assay for Compounds that Act as Agonists of the Vanilloid Receptor 1; note: 0% is about no effect
Details: TRPV1-expressing cells, Fluo-8 calcium influx, agonist mode; at 8.33 µM, stronger effect = higher value
In short: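 Fluo-8 calcium influx in TRPV1-expressing cells, kinetic read (ex 480/em 520 nm). Compound added and read 3 min for agonist activity, followed by capsaicin at EC20 final and 2 min further read for enhancement.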

By UniProt entry, the sequences of proteins in these tests, tags left out.
UniProt Q8NER1, whole entry, looked up: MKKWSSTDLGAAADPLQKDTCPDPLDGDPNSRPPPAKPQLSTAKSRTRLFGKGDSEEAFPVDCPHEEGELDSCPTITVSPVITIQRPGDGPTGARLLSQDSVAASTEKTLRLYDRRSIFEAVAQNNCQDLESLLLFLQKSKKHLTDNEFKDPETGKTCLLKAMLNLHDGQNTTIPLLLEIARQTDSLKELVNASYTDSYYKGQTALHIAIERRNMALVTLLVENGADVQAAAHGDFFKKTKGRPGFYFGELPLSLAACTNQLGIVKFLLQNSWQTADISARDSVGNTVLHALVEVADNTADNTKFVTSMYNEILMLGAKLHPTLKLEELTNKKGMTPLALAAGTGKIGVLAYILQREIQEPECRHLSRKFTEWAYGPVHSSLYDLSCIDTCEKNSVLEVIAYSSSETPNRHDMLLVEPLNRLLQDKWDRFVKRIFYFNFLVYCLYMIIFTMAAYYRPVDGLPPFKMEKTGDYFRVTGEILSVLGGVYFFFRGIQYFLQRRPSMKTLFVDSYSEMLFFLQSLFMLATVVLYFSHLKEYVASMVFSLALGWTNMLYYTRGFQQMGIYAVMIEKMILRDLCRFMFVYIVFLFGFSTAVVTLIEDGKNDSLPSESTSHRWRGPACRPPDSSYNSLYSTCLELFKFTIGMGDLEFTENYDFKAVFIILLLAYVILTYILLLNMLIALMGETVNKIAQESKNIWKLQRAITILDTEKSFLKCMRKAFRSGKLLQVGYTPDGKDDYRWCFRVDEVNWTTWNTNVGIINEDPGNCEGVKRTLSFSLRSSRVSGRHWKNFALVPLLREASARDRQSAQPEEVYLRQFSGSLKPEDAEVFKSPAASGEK

SMILES	activation
CCCc1ccc2oc(C(=O)N3CCN(CC(=O)NC(C)C)CC3)c(C)c2c1	inconclusive: 32.9%
O=C(CSc1ccccn1)Nc1ccc2ccccc2c1	inactive: 27.4%
c1ccc2c(c1)CCCN2c1nc(N2CCOCC2)nc(N2CCOCC2)n1	inconclusive: 61.8%
CC(/C=N/NC(=O)c1ccncc1)=C\c1ccccc1	inconclusive: 62.7%
Cc1c(C(=O)Nc2cc(F)ccc2F)sc2nc3n(c(=O)c12)CCCCC3	inconclusive: 44.8%
COc1cccc(CN(C)C(=O)c2cc(-c3cccs3)nc3ccccc23)c1	inactive: 9.28%
COc1ccc(Nc2ncc(F)c(N3CCOCC3)n2)cc1	inconclusive: 54%
COc1ccc(OC)c(NC(=O)c2cccc3c2C(=O)N(C2CCCCC2)C3)c1	inconclusive: 40.1%
O=C(Nc1ccc2c(c1)OCCO2)c1ccccc1F	inactive: 23.4%
CC(=O)Nc1nc(-c2ccc(Cl)cc2)ns1	inconclusive: 33.9%
CC1CCN(S(=O)(=O)c2ccc3c(c2)c(=O)c(C(=O)N2CCCCC2)cn3C)CC1	inactive: 5.09%
COc1ccc(Nc2oc(-c3ccc(F)cc3)nc2C#N)cc1	inconclusive: 32%
NNC(=O)C1=NOC2COC3(CCN(c4ncccn4)CC3)OCC12 (stereo not drawn)	inactive: -1.78%
CN(CC(=O)NC(=O)NC1CCCCC1)Cc1ccccc1	inconclusive: 33.6%
CC(=O)c1c(C)[nH]c(C(=O)CSc2ccc(F)cc2)c1C	inconclusive: 43%
CCOc1ccc(S(=O)(=O)N2CCN(c3ccccn3)CC2)cc1	inconclusive: 38.5%
S=C(NCc1ccco1)Nc1cc(Cl)c(Cl)cc1Cl	inconclusive: 42.2%
CCN1C(=O)c2cccc3c(S(=O)(=O)Nc4ccccc4OC)ccc1c23	inactive: 1.06%
CCc1cc(Cn2nc(-c3ccccc3)cc2C(=O)NCc2cccs2)on1	inconclusive: 70%
COc1ccc(-[n+]2c(C)cc(/C=C3\Sc4ccccc4N3C)cc2C)cc1	inconclusive: 56.2%

4 of the compounds above, as comma-separated lines.
SMILES,activation
CC(/C=N/NC(=O)c1ccncc1)=C\c1ccccc1,inconclusive: 62.7%
Cc1c(C(=O)Nc2cc(F)ccc2F)sc2nc3n(c(=O)c12)CCCCC3,inconclusive: 44.8%
CN(CC(=O)NC(=O)NC1CCCCC1)Cc1ccccc1,inconclusive: 33.6%
CC(=O)c1c(C)[nH]c(C(=O)CSc2ccc(F)cc2)c1C,inconclusive: 43%

Next part:

SMILES	activation
Cc1ccc(NC(=O)/C(Cl)=C/c2ccccc2)cc1C	inconclusive: 39.9%
CCOc1ccc2ccccc2c1/C=N/NC(=O)CC1(C)OCCCO1	inconclusive: 34.5%
O=[N+]([O-])c1ccc(/C=N/Nc2nc(N3CCCC3)nc(N3CCCC3)n2)o1	inconclusive: 58.9%
C/C(=N\NC(=O)Cc1c[nH]c2ccccc12)c1ccc2ccccc2c1	inconclusive: 44.2%
Cn1c(=O)n(Cc2ccc(Cl)cc2)c(=O)c2c1nc1n2CCN1Cc1ccco1	inconclusive: 46.7%
CCCNC(=O)c1oc2ccc3c(c2c1C)C(=O)CC(C)(C)O3	inconclusive: 55.9%
O=C(CCc1ccccc1)N/N=C/c1cccc([N+](=O)[O-])c1	inconclusive: 59.3%
C/C(N)=C(/C#N)C(=O)CSc1nc2ccccc2n1CC(C)C	inconclusive: 33.5%
Fc1ccc(Nc2ncnc3sc4c(c23)CCC4)cc1	active: 80.6%
Cc1ccc(C)c(C(=O)CSc2nnnn2C(C)C)c1	inactive: 27.5%
O=C(Nc1nc(-c2cccs2)c(-c2cccs2)s1)C1CCCC1	inconclusive: 32.4%
Cc1ccc(C2=N/C(=C/N3CCOCC3)C(=O)O2)cc1	inconclusive: 53.7%
CCOC(=O)C1=C(C)N=c2s/c(=C\c3ccc(O)c([N+](=O)[O-])c3)c(=O)n2C1c1ccccc1OC (stereo not drawn)	inactive: 0.541%
COc1ccc(CC2(C)OC(c3ccccc3)=NN2C(C)=O)cc1 (stereo not drawn)	inconclusive: 32.7%
CCOC(=O)C1CCCN(C/C=C/c2ccccc2[N+](=O)[O-])C1 (stereo not drawn)	inactive: 6.92%
Cc1cc(C=O)c2c(c1)C=CC1(Oc3ccccc3C(=O)N1C)O2 (stereo not drawn)	inconclusive: 30.3%
O=C1CC2(CCN(C(=O)c3ccccc3Cl)CC2)Oc2ccccc21	inconclusive: 72%
O=C(c1ccco1)N1CCN(C2CCCC2)CC1	inconclusive: 33.3%
Cc1ccc(N(CC(=O)NC2CCCCC2)C(=O)Cn2nnc(-c3ccc(C)o3)n2)cc1	inactive: 2.5%
CC1CCCC(NC(=S)NC(=O)c2cncc(Br)c2)C1C (stereo not drawn)	inconclusive: 40.3%

SMILES	activation
O=C(c1cccc(N2C(=O)C3C4C=CC(C4)C3C2=O)c1)N1CCN(c2ccc(F)cc2)CC1 (stereo not drawn)	inactive: 0.504%
CCOc1ccc2cc(S(=O)(=O)n3ccnc3C)ccc2c1	inactive: -1.67%
C=CCN1c2ccccc2[C@]23C[C@@H](C(=O)OC)N(C(=O)CC(C)C)C2=NC(C(=O)OC)=C(C(=O)OC)[C@H]13	inconclusive: 42.7%
CCOC(=O)C1=C(C)N(C)C(C)=C(C(=O)OCC)C1c1ccccc1	inconclusive: 39.4%
CC(=O)c1cccc(NC(=O)c2noc3c2CCc2ccccc2-3)c1	inconclusive: 33.2%
COc1ccc(CNC(=O)N2CCN(c3ccc(F)cc3)CC2)cc1Cl	inconclusive: 73.5%
C=CCn1c(SCC(=O)N2CCc3ccccc3C2)nc2sc(CC)cc2c1=O	inconclusive: 41.2%
Cc1cc(OCC(=O)NC2CCCCC2)ccc1Cl	inconclusive: 61.8%
O=C(c1ccc(Sc2ccc(F)cc2)c([N+](=O)[O-])c1)N1CCOCC1	inconclusive: 33.9%
Cc1cc(C)c(C(=O)CSc2nnc(N)s2)cc1C	inconclusive: 47.1%
CCc1ccc(CN(C)CC(=O)Nc2ccc3c(c2)CCC3)cc1	inconclusive: 32.6%
O=C(NCCCN1CCCC1)[C@H](CSCc1ccccc1)N1Cc2ccccc2C1=O	inactive: -3.31%
COc1ccc(NC(=O)c2ccc3c(=O)n4c(nc3c2)CCCCC4)cc1	inactive: -2.16%
COc1cccc(CC(=O)NCCCSc2ccccc2)c1	inconclusive: 71%
O=C(C#Cc1ccccc1)Nc1cccc(F)c1	inconclusive: 67.1%
FC(F)(F)c1cnc(C(c2ccccn2)c2ncn[nH]2)c(Cl)c1 (stereo not drawn)	inactive: -0.659%
CC1CCN(c2ccc3c(c2)S(=O)(=O)c2cccc(C(=O)NCc4ccc(F)cc4)c2C3=O)CC1	inconclusive: 36.5%
CC(NC(=S)Nc1ccc(Cl)cc1)C(c1ccccc1)N1CCOCC1 (stereo not drawn)	inactive: 1.18%

Source: PubChem BioAssay AID540275 (National Center for Advancing Translational Sciences (NCATS), 2011)
